Experimental data reported in PubChem BioAssay AID248 (DTP/NCI, 2004).
The list does not hold the whole screen: it is rich in T/C values a quarter to a half above the control, in often repeated tests (any T/C) and in doses without a T/C. Further doses and runs are listed elsewhere. T/C is the treated group as % of the vehicle group. Some doses have a count of surviving animals in place of a T/C: the source holds a T/C of zero for them, seemingly a mark for toxic or unscored doses. Some survivor counts are full or nearly so, which does not show that the dose was tolerated: the source hardly ever lists a survival T/C far under the control, and the zero likely stands for such cases as well. Survivors were counted at the toxicity check, usually on the fifth day, unless a day is given; later deaths do not show. Schedules are NCI's codes, read here as Q, the interval in days (D) or hours (H), X, the number of doses. Some schedule codes hold Z or #, which are not explained here. Some entries were tested several times; the values are given in rising order. For survival time, the PubChem record calls one and a half times the control and up active, and a quarter to a half above the control has no call in these data; cut-offs in other NCI protocols can differ. Some T/C values carry the count of animals alive at the toxicity check (mostly the fifth day); where none is given, no animal had died by that day.

Tested on: L1210 leukemia ip in BDF1 mice, survival T/C
Experiment: NCI In Vivo Anticancer Drug Screen. Data for tumor model L1210 Leukemia (intraperitoneal) in B6D2F1 (BDF1) mice
Conditions: higher T/C = longer survival
[1] = T/C endpoint: mean survival time, dose: 300.0 mg/kg/injection, schedule: Q01DX001 (ip), vehicle: saline
[2] = T/C endpoint: mean survival time, dose: 400.0 mg/kg/injection, schedule: Q04DX003 (ip), vehicle: saline with Tween-80
[3] = T/C endpoint: mean survival time, dose: 400.0 mg/kg/injection, schedule: Q04DX003 (ip), vehicle: saline
[4] = T/C endpoint: mean survival time, dose: 200.0 mg/kg/injection, schedule: Q04DX003 (ip), vehicle: saline
[5] = T/C endpoint: mean survival time, dose: 400.0 mg/kg/injection, schedule: Q04DX003 (ip), vehicle: Klucel (hydroxypropylcellulose) (HPC)
[6] = T/C endpoint: mean survival time, dose: 200.0 mg/kg/injection, schedule: Q04DX003 (ip), vehicle: saline with Tween-80
[7] = T/C endpoint: mean survival time, dose: 400.0 mg/kg/injection, schedule: Q01DX009 (ip), vehicle: Klucel (hydroxypropylcellulose) (HPC)
[8] = T/C endpoint: mean survival time, dose: 100.0 mg/kg/injection, schedule: Q01DX009 (ip), vehicle: saline with Tween-80
[9] = T/C endpoint: mean survival time, dose: 100.0 mg/kg/injection, schedule: Q04DX003 (ip), vehicle: Klucel (hydroxypropylcellulose) (HPC)
[10] = T/C endpoint: mean survival time, dose: 200.0 mg/kg/injection, schedule: Q04DX003 (ip), vehicle: Klucel (hydroxypropylcellulose) (HPC)
[11] = T/C endpoint: mean survival time, dose: 20.0 mg/kg/injection, schedule: Q01DX001 (ip), vehicle: saline
[12] = T/C endpoint: mean survival time, dose: 40.0 mg/kg/injection, schedule: Q01DX001 (ip), vehicle: saline
[13] = T/C endpoint: mean survival time, dose: 75.0 mg/kg/injection, schedule: Q01DX001 (ip), vehicle: saline
[14] = T/C endpoint: mean survival time, dose: 150.0 mg/kg/injection, schedule: Q01DX001 (ip), vehicle: saline

For Cc1cc(C)c(C(=O)OCCN(C)C)c(C)c1, the survivor count [1] was 1 of 6.

With CC(=O)Nc1ncnc2c1ncn2Cc1ccccc1 the survivor count [2] was 6 of 6.

For C=CCNC(C)=O, the survivor count [3] was 6 of 6.

In the case of CC[N+]1(C)CCOCC1, the survivor count [1] is reported as 3 of 6.

With COc1ccccc1N=Nc1c(O)n(-c2ccccc2C)c(=S)n(-c2ccc(C)cc2)c1=O the survivor count (T/C endpoint: mean survival time, dose: 400.0 mg/kg/injection, schedule: Q01DX001 (ip), vehicle: Klucel (hydroxypropylcellulose) (HPC)) was 3 of 6.

For O=C(COc1ccc(Cl)c(Cl)c1)NCc1ccc[n+](Cc2ccc(Cl)c(S(=O)(=O)F)c2)c1, the survivor count [4] was 1 of 6 and the survivor count [3] was 2 of 6.

With CCOC(=O)c1occ(Cl)c1Cl the survivor count (T/C endpoint: mean survival time, dose: 400.0 mg/kg/injection, schedule: Q01DX001 (ip), vehicle: saline) was 2 of 6.

CC(=O)OC1OC(CS[As](C)C)C(OC(C)=O)C(OC(C)=O)C1OC(C)=O (stereo unspecified) was tested, and the survivor count [5] was 0 of 6.

For C=C(Br)CN=C=S, the survivor count (T/C endpoint: mean survival time, dose: 100.0 mg/kg/injection, schedule: Q04DX003 (ip), vehicle: saline with Tween-80) was 6 of 6, the survivor count [6] was 0 of 6 and the survivor count [2] was 0 of 6.

In the case of Cc1cnc2c(N)nn(C)c2n1, the survivor count (T/C endpoint: mean survival time, dose: 200.0 mg/kg/injection, schedule: Q01DX009 (ip), vehicle: saline) is reported as 1 of 6 and the survivor count (T/C endpoint: mean survival time, dose: 400.0 mg/kg/injection, schedule: Q04DX003 (ip), vehicle: alcohol) is reported as 0 of 6.

CCC1(c2ccccc2)NC(=O)N(C)C1=O (stereo unspecified) was tested, and the survivor count [7] was 3 of 6.

For O=C(O)c1ccc(N=Nc2ncc[nH]2)cc1, the survivor count [8] was 0 of 3 and the survivor count (T/C endpoint: mean survival time, dose: 200.0 mg/kg/injection, schedule: Q01DX009 (ip), vehicle: saline with Tween-80) was 1 of 3.

In the case of COc1cc(C(=O)NCC2(C)OC3(OC(=O)C2O)C(=O)N/C(=C(\C=O)C(C)=O)OC3C(O)C2CN2C(C)=O)c2cccc(C)c2c1 (stereo unspecified), the T/C (T/C endpoint: mean survival time, dose: 0.03 mg/kg/injection, schedule: Q03DX005 (ip), vehicle: clinical formulation) is reported as 137 % of control, the survivor count (T/C endpoint: mean survival time, dose: 0.06 mg/kg/injection, schedule: Q#B X045 (ip), vehicle: clinical formulation) is reported as 3 of 6 and the T/C (T/C endpoint: mean survival time, dose: 0.07 mg/kg/injection, schedule: Q03DX005 (ip), vehicle: clinical formulation) is reported as 135 % of control. The T/C (T/C endpoint: mean survival time, dose: 0.1 mg/kg/injection, schedule: Q07DX003 (ip), vehicle: clinical formulation) was 144 % of control, the survivor count (T/C endpoint: mean survival time, dose: 0.13 mg/kg/injection, schedule: Q#B X045 (ip), vehicle: clinical formulation) was 0 of 6 and the T/C (T/C endpoint: mean survival time, dose: 0.2 mg/kg/injection, schedule: Q01DX001 (ip), vehicle: clinical formulation) was 128 % of control. The T/C (T/C endpoint: mean survival time, dose: 0.2 mg/kg/injection, schedule: Q01DX015 (oral), vehicle: clinical formulation) was 127 % of control, the survivor count (T/C endpoint: mean survival time, dose: 0.26 mg/kg/injection, schedule: Q#B X045 (ip), vehicle: clinical formulation) was 0 of 6 and the survivor count (T/C endpoint: mean survival time, dose: 0.3 mg/kg/injection, schedule: Q03DX005 (ip), vehicle: clinical formulation) was 2 of 6. The T/C (T/C endpoint: mean survival time, dose: 0.4 mg/kg/injection, schedule: Q01DX015 (oral), vehicle: clinical formulation) was 126 % of control [5 of 6 alive], the survivor count (T/C endpoint: mean survival time, dose: 0.4 mg/kg/injection, schedule: Q07DX003 (ip), vehicle: clinical formulation) was 6 of 6 and the survivor count (T/C endpoint: mean survival time, dose: 0.8 mg/kg/injection, schedule: Q01DX001 (ip), vehicle: clinical formulation) was 0 of 6. For the same compound, the survivor count (T/C endpoint: mean survival time, dose: 0.8 mg/kg/injection, schedule: Q07DX003 (ip), vehicle: clinical formulation) was 1 of 6, the T/C (T/C endpoint: mean survival time, dose: 12.5 micrograms/kg/injection, schedule: Q01DX015 (ip), vehicle: clinical formulation) was 140 % of control and the T/C (T/C endpoint: mean survival time, dose: 12.5 micrograms/kg/injection, schedule: Q01DX015 (sc), vehicle: clinical formulation) was 128 % of control. The T/C (T/C endpoint: mean survival time, dose: 13.0 micrograms/kg/injection, schedule: Q01DX Z (ip), vehicle: saline) was 131 % of control, the T/C (T/C endpoint: mean survival time, dose: 15.0 micrograms/kg/injection, schedule: Q03DX005 (ip), vehicle: clinical formulation) was 130 % of control and the T/C (T/C endpoint: mean survival time, dose: 25.0 micrograms/kg/injection, schedule: Q01DX015 (ip), vehicle: clinical formulation) was 147 % of control. The T/C (T/C endpoint: mean survival time, dose: 25.0 micrograms/kg/injection, schedule: Q01DX015 (sc), vehicle: clinical formulation) was 142 % of control, the T/C (T/C endpoint: mean survival time, dose: 25.0 micrograms/kg/injection, schedule: Q01DX045 (ip), vehicle: clinical formulation) was 132 % of control [4 of 6 alive] and the T/C (T/C endpoint: mean survival time, dose: 25.0 micrograms/kg/injection, schedule: Q01DX Z (ip), vehicle: saline) was 146 % of control. The T/C (T/C endpoint: mean survival time, dose: 50.0 micrograms/kg/injection, schedule: Q01DX015 (ip), vehicle: clinical formulation) was 129 % of control, the T/C (T/C endpoint: mean survival time, dose: 50.0 micrograms/kg/injection, schedule: Q01DX015 (sc), vehicle: clinical formulation) was 146 % of control and the T/C (T/C endpoint: mean survival time, dose: 50.0 micrograms/kg/injection, schedule: Q01DX045 (ip), vehicle: clinical formulation) was 128 % of control [5 of 6 alive]. The T/C (T/C endpoint: mean survival time, dose: 50.0 micrograms/kg/injection, schedule: Q07DX003 (ip), vehicle: clinical formulation) was 128 % of control, the T/C (T/C endpoint: mean survival time, dose: 100.0 micrograms/kg/injection, schedule: Q01DX015 (sc), vehicle: clinical formulation) was 145 % of control and the T/C (T/C endpoint: mean survival time, dose: 100.0 micrograms/kg/injection, schedule: Q01DX045 (ip), vehicle: clinical formulation) was 140 % of control [5 of 6 alive]. The survivor count (T/C endpoint: mean survival time, dose: 100.0 micrograms/kg/injection, schedule: Q01DX Z (ip), vehicle: saline) was 6 of 6.

With CN(C)C(=O)Sc1ccc(S(=O)(=O)F)cc1[N+](=O)[O-] the survivor count [7] was 0 of 6.

In the case of COc1ccc(C2CCCCCC2OS(C)(=O)=O)c(OC)c1OC (stereo unspecified), the survivor count (T/C endpoint: mean survival time, dose: 400.0 mg/kg/injection, schedule: Q01DX001 (ip), vehicle: carboxymethylcellulose (CMC)) is reported as 0 of 4.

ClC1OCCOC1Cl (stereo unspecified) was tested, and the survivor count [4] was 2 of 5 and the survivor count [3] was 0 of 6.

With Nc1ccccc1O the survivor count [9] was 2 of 3, the survivor count [10] was 0 of 3 and the survivor count [5] was 0 of 3.

For CCC(=O)NC1=C(N2CC2C)C(=O)C(NC(=O)CC)=C(N2CC2C)C1=O (stereo unspecified), the survivor count (T/C endpoint: mean survival time, dose: 55.0 mg/kg/injection, schedule: Q01DX009 (ip), vehicle: Klucel (hydroxypropylcellulose) (HPC)) was 6 of 6.

In the case of O=S(=O)(F)c1cccc2nsnc12, the survivor count (T/C endpoint: mean survival time, dose: 200.0 mg/kg/injection, schedule: Q04DX003 (ip), vehicle: carboxymethylcellulose (CMC)) is reported as 6 of 6.

For CC(=O)O[C@]1(C(C)=O)CC[C@H]2[C@@H]3C[C@H](C)C4=CC(=O)CC[C@]4(C)[C@H]3CC[C@@]21C, the survivor count (T/C endpoint: median survival time, dose: 128.0 mg/kg/injection, schedule: Q03HX024 (ip), vehicle: Klucel (hydroxypropylcellulose) (HPC)) was 4 of 10, the survivor count (T/C endpoint: median survival time, dose: 256.0 mg/kg/injection, schedule: Q03HX008 (ip), vehicle: Klucel (hydroxypropylcellulose) (HPC)) was 6 of 10 and the survivor count (T/C endpoint: median survival time, dose: 256.0 mg/kg/injection, schedule: Q03HX016 (ip), vehicle: Klucel (hydroxypropylcellulose) (HPC)) was 0 of 10. For the same compound, the survivor count (T/C endpoint: median survival time, dose: 256.0 mg/kg/injection, schedule: Q03HX024 (ip), vehicle: Klucel (hydroxypropylcellulose) (HPC)) was 1 of 10 and the survivor count (T/C endpoint: median survival time, dose: 2048.0 mg/kg/injection, schedule: Q04DX003 (ip), vehicle: Klucel (hydroxypropylcellulose) (HPC)) was 5 of 10.

O=C1C(Cl)=C(Cl)C(=O)c2cc(Cl)c(Cl)cc21 was tested, and the survivor count [11] was 3 of 6, the survivor count [12] was 1 of 6 and the survivor count [13] was 1 of 6. For the same compound, the survivor count [14] was 4 of 6 and the survivor count [1] was 0 of 6.

In the case of COC(=O)N1C=C2C(C)=CC1C(C#N)(C#N)C2(C#N)C#N (stereo unspecified), the survivor count [11] is reported as 1 of 6 and 2 of 6, the survivor count [12] is reported as 0 of 6 and the survivor count [13] is reported as 0 of 6. For the same compound, the survivor count [14] was 0 of 6 and the survivor count [1] was 0 of 6.

For CCCCCCCC1CCC(N)CC1 (stereo unspecified), the survivor count [9] was 3 of 6, the survivor count [10] was 2 of 6 and the survivor count [5] was 1 of 6.

With c1ccc(SSc2ccccc2)cc1 the survivor count [8] was 6 of 6.

In the case of O=C(Oc1ccccc1Cl)c1ccccc1, the survivor count (T/C endpoint: mean survival time, dose: 400.0 mg/kg/injection, schedule: Q01DX009 (ip), vehicle: saline with Tween-80) is reported as 2 of 6.

In the case of CCOP(=S)(OCC)SC(C)(C)C, the survivor count [6] is reported as 5 of 6 and the survivor count [2] is reported as 0 of 6.
